In PubChem BioAssay (NCATS):
This list was built around the results that the source calls inconclusive (neither active nor inactive); the mix of calls is not that of the screen. Where the call is inconclusive, the potency comes from a doubtful curve fit. Activity calls are given as the source filed them. The call rests on the fitted dose curve; in most records, active means well fitted inhibition curve with a large enough effect; inconclusive means small, poorly fitted or top-dose-only effect; inactive means no such curve, though single readings can be large or run the other way.

Biological target: Retinaldehyde dehydrogenase 3 (Homo sapiens) (UniProt P47895)
Test: qHTS for Inhibitors of the Aldehyde Dehydrogenase Family (ALDH1A3) Validation screen (AID 2061312); further: nearly all actives have a fitted effect of over 45% in size
Conditions: ALDH1A3 enzyme inhibition qHTS validation, fluorescence; series mostly up to 84.7 µM
Potency means the concentration at half of the fitted maximal effect.

Structure (SMILES) | Potency
CCCSc1nc(NC2CC2c2ccc(F)c(F)c2)c2nnn(C3CC(OCCO)C(O)C3O)c2n1 (centres undefined) | active: 31.6 µM
Cc1cc(NC2CCCCC2)nc(-n2nc(C)cc2C)n1 | inactive
O=C1NC(O)=NC1(c1ccccc1)c1ccccc1 | inactive
CN(C)CC/C=C1\c2ccccc2COc2ccccc21 | inactive
Cc1nc2n(c(=O)c1CCN1CCC(c3noc4cc(F)ccc34)CC1)CCCC2O (centres undefined) | inconclusive: 3.98 µM [inhibitor, partial curve, poor fit]
CCN(CC)C(=O)C(c1ccccc1)N1CCN(c2ccc(NC(=O)c3ccccc3-c3cccnc3)cc2F)CC1 (centres undefined) | inactive
C=CCN1CCc2c(cc(O)c(O)c2Br)[C@@H](c2ccccc2)C1 | inconclusive: 2.51 µM [inhibitor, full curve]
Oc1ccc(C2CNCc3sccc32)cc1O (centres undefined) | inconclusive: 4.47 µM [inhibitor, partial curve]
CN1CCN(C(c2ccccc2)c2ccccc2)CC1 | inconclusive: 39.8 µM [inhibitor, partial curve, poor fit]
Cc1nnc(SCC2=C(C(=O)O)N3C(=O)[C@@H](NC(=O)Cn4cnnn4)[C@H]3SC2)s1 | inconclusive: 11.2 µM [inhibitor, partial curve]
COc1ccc(C2(CNC(=O)[C@](C)(Cc3c[nH]c4ccccc34)NC(=O)Nc3ccc([N+](=O)[O-])cc3)CCCCC2)nc1 | inconclusive: 35.5 µM [inhibitor, partial curve, poor fit]
CC(=O)Oc1cc(C(C)C)c(OCCN(C)C)cc1C | inconclusive: 6.31 µM [inhibitor, partial curve, poor fit]
CCCN1CCC[C@@H](c2cccc(S(C)(=O)=O)c2)C1 | inactive
CCOC(=O)C(CCc1ccccc1)NC(C)C(=O)N1C(=O)N(C)CC1C(=O)O (centres undefined) | inconclusive: 44.7 µM [inhibitor, partial curve, poor fit]
COc1c(C)cnc(Cn2cc(C#CCC(C)(C)O)c3c(Cl)nc(N)nc32)c1C | inactive
Cc1cc2c(cc1Cl)N(C(=O)Nc1ccnc3ccccc13)CC2 | inconclusive: 31.6 µM [inhibitor, single point]
CCOC(=O)C(CCc1ccccc1)NC(C)C(=O)N1Cc2ccccc2CC1C(=O)O (centres undefined) | inconclusive: 11.2 µM [inhibitor, full curve]
COc1cc(Nc2nc3ccccc3nc2NS(=O)(=O)c2ccc(NC(=O)c3ccc(OC)c(C)c3)cc2)cc(OC)c1 | inactive
C1CCc2nnnn2CC1 | inconclusive: 17.8 µM [inhibitor, single point]
Clc1ccc(Nc2nc3ccccc3c3nc(C4CCCCC4)[nH]c23)cc1Cl | inconclusive: 25.1 µM [inhibitor, full curve, poor fit]
O=C(O)Cc1cc(I)c(Oc2ccc(O)c(I)c2)c(I)c1 | inconclusive: 2.82 µM [inhibitor, full curve, poor fit]
O=C(O)[C@@H]1C[C@H]2C[C@@H](CCc3nn[nH]n3)CC[C@H]2CN1 | active: 10 µM

A second format for two compounds above:
Structure (SMILES)	Potency
Clc1ccc(Nc2nc3ccccc3c3nc(C4CCCCC4)[nH]c23)cc1Cl	inconclusive: 25.1 µM [inhibitor, full curve, poor fit]
O=C(O)Cc1cc(I)c(Oc2ccc(O)c(I)c2)c(I)c1	inconclusive: 2.82 µM [inhibitor, full curve, poor fit]

(continued)

Structure (SMILES) | Potency
C[C@@H]1C(=O)O[C@H]2[C@@H](O)C34[C@H]5C[C@@H](C(C)(C)C)C36[C@@H](OC(=O)[C@@H]6O)O[C@@]4(C(=O)O5)[C@@]12O (some centres undefined) | inactive
O=c1[nH]c(=S)[nH]c(-c2ccccc2)c1Cc1c(O)ccc2ccccc12 | inconclusive: 17.8 µM [inhibitor, single point]
Cc1ccc(C(=O)N2CCN(c3ccc([N+](=O)[O-])cc3)CC2)cc1Cl | inconclusive: 56.2 µM [inhibitor, partial curve, poor fit]
CC(=O)NCCc1c[nH]c2ccc(O)cc12 | inconclusive: 12.6 µM [inhibitor, partial curve]
Cn1ncnc1COc1nn2c(-c3cc(F)ccc3F)nnc2cc1C(C)(C)C | inactive
COC(=O)[C@H](Cc1ccc([N+](=O)[O-])cc1)NC(=O)c1cccc2ccccc12 | inconclusive: 15.8 µM [inhibitor, partial curve]
O=C(Nc1ccc(C(O)(C(F)(F)F)C(F)(F)F)cc1)c1ccc(C(F)(F)F)cc1 | inconclusive: 50.1 µM [inhibitor, partial curve, poor fit]
CC[C@@H](C)[C@H](N)C(=O)N1Cc2ccccc2C1 | inconclusive: 1 µM [inhibitor, full curve, poor fit]
C#CCN(C)CCCOc1ccc(Cl)cc1Cl | inconclusive: 11.2 µM [inhibitor, partial curve]
Cc1onc(-c2c(Cl)cccc2Cl)c1CC(=O)NCc1ccc(OCC(F)(F)F)nc1 | inactive
CC(Cc1cc2c(c(C(N)=O)c1)N(CCCO)CC2)NCCOc1ccccc1OCC(F)(F)F (centres undefined) | inactive
COc1cc2c(cc1OC)CN(C(=O)[C@@H](NCc1ccncc1)C(C)(C)C)CC2 | inconclusive: 14.1 µM [inhibitor, partial curve, poor fit]
Cc1cc(OCCCS(C)(=O)=O)cc(C)c1-c1cccc(COc2ccc3c(c2)OCC3CC(=O)O)c1 (centres undefined) | inactive
CO[C@@]1(NC(=O)CSCC#N)C(=O)N2C(C(=O)O)=C(CSc3nnnn3C)CS[C@@H]21 | inactive
CC(C)OC(=O)N1CCC(Oc2ncnc3c2cnn3-c2ccc(S(C)(=O)=O)cc2F)CC1 | inconclusive: 35.5 µM [inhibitor, partial curve]
C=C1C[C@@]23CC[C@H]4[C@@](C)(CCC[C@@]4(C)C(=O)OC4OC(CO)C(O)C(O)C4O)[C@@H]2CC[C@]1(OC1OC(CO)C(O)C(O)C1OC1OC(CO)C(O)C(O)C1O)C3 (some centres undefined) | inactive
[Li+] | inactive
Cc1ccc(-n2nc(C(C)(C)C)cc2NC(=O)Nc2cc(COc3cccnc3)[nH]n2)cc1 | inactive
C[C@@H]1CCCN1CCc1cc2cc(-c3ccc(C#N)cc3)ccc2o1 | inconclusive: 44.7 µM [inhibitor, partial curve, poor fit]
O=C(O)C1=CCCNC1 | inactive
Clc1ccc(N2CCN(Cc3c[nH]c4ncccc34)CC2)cc1 | inconclusive: 2 µM [inhibitor, full curve]
NS(=O)(=O)c1ccc(NC(=O)Nc2ccc(F)cc2)cc1 | inactive

Structure (SMILES) | Potency
O=C(c1ccc(F)cc1)N1CCCC(c2nc(-c3ccc(F)cc3)no2)C1 (centres undefined) | inconclusive: 14.1 µM [inhibitor, single point]
NO | inconclusive: 20 µM [inhibitor, single point]
Cc1ccc2nc(N)[nH]c(=O)c2c1Sc1ccncc1 | active: 7.94 µM
CN1[C@@H]2CC[C@H]1CC(OC(=O)c1c[nH]c3ccccc13)C2 (some centres undefined) | inconclusive: 31.6 µM [inhibitor, full curve, poor fit]
CC(N)=NCCCC[C@@H](N)C(=O)O | inconclusive: 3.55 µM [inhibitor, full curve, poor fit]
CC(=O)OC(C)C[N+](C)(C)C (centres undefined) | inactive
O=S(=O)(NC1CCNCC1)c1cc(S(=O)(=O)c2ccccc2)ccc1C(F)(F)F | inconclusive: 5.62 µM [inhibitor, full curve, poor fit]
O=C(NCc1ccc(F)cc1)C(=O)c1c[nH]c2ccccc12 | inactive
CC(=O)c1ccc2c(c1)N(CCCN(C)C)c1ccccc1S2 | inactive
Cc1cc(C(=O)N2Cc3cnn(C)c3Nc3ccccc32)ccc1CNC(=O)N1CCN(Cc2cc(O)cc(O)c2)CC1 | inconclusive: 7.08 µM [inhibitor, full curve, poor fit]
CCN(CC)CCNC(=O)c1cc(Cl)c(N)cc1OC | inactive
CC(C)(C)NCCCNC(=O)c1cccc(Br)c1 | inconclusive: 28.2 µM [inhibitor, full curve, poor fit]
N#CC(c1ccnc(OCc2ccc(CN3CCOCC3)cc2)n1)c1nc2ccccc2s1 (centres undefined) | inactive
COC(=O)C(N)Cc1ccc(Cl)cc1 (centres undefined) | inactive
COc1cc2nc(N(C)CCCNC(=O)C3CCCO3)nc(N)c2cc1OC (centres undefined) | inconclusive: 0.316 µM [inhibitor, full curve, poor fit]
CN(C)CCn1cc(S(=O)(=O)c2cccc(F)c2)c2cccnc21 | inconclusive: 10 µM [inhibitor, partial curve, poor fit]
COCCOc1cc2ncnc(Cl)c2cc1OCCOC | inconclusive: 5.62 µM [inhibitor, full curve, poor fit]
O=C1N(CC2CCCCN2)CCN1c1ccccc1 (centres undefined) | inconclusive: 11.2 µM [inhibitor, full curve]
C=CC(C)(O)CC[C@@H]1[C@@]2(C)CCCC(C)(C)C2CC[C@@]1(C)O (some centres undefined) | inactive
OC[C@H]1NC[C@@H](O)[C@@H]1O | inactive

Fetched by structure from the entries so far (three):
Structure (SMILES) | Potency
CO[C@@]1(NC(=O)CSCC#N)C(=O)N2C(C(=O)O)=C(CSc3nnnn3C)CS[C@@H]21 | inactive
O=C(O)Cc1cc(I)c(Oc2ccc(O)c(I)c2)c(I)c1 | inconclusive: 2.82 µM [inhibitor, full curve, poor fit]
CN1CCN(C(c2ccccc2)c2ccccc2)CC1 | inconclusive: 39.8 µM [inhibitor, partial curve, poor fit]
